The list shows a part of the results, in another mix than the full data. At the low end of the ranking the order means little.
Molecular target: T1, SPIC (UniProt Q8N5J4)
T1 sequence: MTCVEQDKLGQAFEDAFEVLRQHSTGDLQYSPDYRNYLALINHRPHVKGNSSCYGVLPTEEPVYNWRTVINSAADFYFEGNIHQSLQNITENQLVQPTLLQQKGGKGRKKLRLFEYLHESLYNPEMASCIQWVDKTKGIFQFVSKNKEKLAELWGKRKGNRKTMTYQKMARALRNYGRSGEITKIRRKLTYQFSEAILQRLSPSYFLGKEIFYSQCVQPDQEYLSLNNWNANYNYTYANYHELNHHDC
Test: DAPPL (digital affinity profiling via proximity ligation, sequencing)
Conditions: 10 mM Tris-HCl pH 7.5, 50 mM NaCl, 1 mM DTT, 4% glycerol, room temperature, 30 min; GST-TFs on glutathione beads, 16-mer random dsDNA library, 0.1% …; high values mean tight binding; double strand, one strand shown; scale: fold enrichment (6-mer frequency, TF over GST control)

Row | Sequence | binding signal
1 | TAATAC | 1.12
2 | AACAAG | 1.15
3 | TACCTA | 1.19
4 | ATCACA | 1.09
5 | TATGTC | 0.966
6 | TAATTC | 1.44
7 | TCAAAC | 1.19
8 | TCAGTT | 0.954
9 | ACTCAC | 1.25
10 | AAATAG | 0.943
11 | AAGACT | 0.998
12 | ACGCCT | 1.25
13 | GACTTT | 1.21
14 | AATTTC | 1.59
15 | CACCGG | 0.992
16 | CCGGCC | 1.32
17 | AGGAAC | 1.23
18 | GCACGC | 1.06
19 | GGTTTG | 1.27
20 | TGTCCC | 1.26

Copied from the listing for reference:
Row | Sequence | binding signal
9 | ACTCAC | 1.25
10 | AAATAG | 0.943
11 | AAGACT | 0.998
12 | ACGCCT | 1.25
13 | GACTTT | 1.21
14 | AATTTC | 1.59
15 | CACCGG | 0.992
16 | CCGGCC | 1.32
17 | AGGAAC | 1.23

Next entries follow.

Row | Sequence | binding signal
21 | GTTATG | 1.23
22 | ATAAGC | 1.08
23 | CGACGC | 1.09
24 | CCGCTT | 1.83
25 | TCCGGG | 1.63
26 | TCAACG | 1.1
27 | CTTTAC | 1.4
28 | CACCAC | 1.3
29 | CAGCGC | 0.863
30 | CTTGTA | 1.22
31 | TTCTAC | 1.7
32 | TTTCGG | 1.05
33 | ATAGCC | 0.978
34 | ACGACC | 0.829
35 | AACTCC | 1.32
36 | TCTCTC | 1.36
37 | ACAACT | 1.39
38 | CCAACC | 0.985
39 | ATCCGG | 2.35

— article PMC7862700
